Test results from patent publication US20180244802A1 (DEUTSCHES ZENTRUM FUR NEURODEGENERATIVE ERKRANKUNGEN E V …, published 2018).
Results are given in words; binding and its absence hold for the method and conditions named. Some results given as binding are weak or reduced against the parent protein; the word gives no strength.

Columns and labels:
[1] = target: NMDAR in the mouse hippocampus (brain sections, primary hippocampal neurons) (mouse) (UniProt P35438); assay: immunofluorescence staining of fixed brain sections
[2] = target: human ionotropic glutamate N-methyl-D-aspartate 1 receptor (GRIN1) (human) (UniProt Q05586); assay: immunofluorescence staining of NR1-transfected HEK293 cells with culture supernatant
[3] = target: human ionotropic glutamate N-methyl-D-aspartate 1 receptor (GRIN1) (human) (UniProt Q05586); assay: immunofluorescence staining of HEK293 cells transfected with wildtype NR1

Measured: binding

B1: 007-169 (antibody, V domains shown)
VH: EVQLVQSGAEVKKPGESLKISCKGSGYSFTSYWIGWVRQMPGKGLEWMGIIYPGDSDTRYSPSFQGQVTISADKSISTAYLQWSSLKASDTAMYYCARDYGDYYFDYWGQGTLVTVSS
VL: QSALTQPRSVSGSPGQSVTISCTGTSSDVGGYNYVSWYQQHPGKAPKLMIYDVSKRPSGVPDRFSGSKSGNTASLTISGLQAEDEADYYCCSYAGSYTGVFGEGTKLTVL
notes: also called 007-169-HC; 007-169-LC
binds: [1] | [2] | [3]

B2: 007-142 (antibody, V domains shown)
VH: EVQLVQSGAEVKKPGESLKISCKGSGYSFTSYWIGWVRQMPGKGLEWMGIIYPGDSDTRYSPSFQGQVTISADKSISTAYLQWSSLKASDTAMYYCARDYGDYYFDYWGQGTLVTVSS
VL: LTQPRSVSGSPGQSVTISCTGTSSDVGGYNYVSWYQQHPGKAPKLMIYDVSKRPSGVPDRFSGSKSGNTASLTISGLQAEDEADYYCCSYAGSYTGVFGGGTKLTVL
notes: also called 007-142-HC; 007-142-LC
binds: [1] | [2] | [3]

B3: 008-218 (antibody, human IgG1, V domains shown)
VH: EVQLVESGGGLVQPGRSLRLSCAASGFTFDDYAMHWVRQVPGKGLEWVSGISWSSGSIGYADSVKGRFTISRDNAKNSLYLQMNSLRAEDTALYYCAKDRASSWYAYGMDVWGQGTLVTV
VL: NFMLTQPHSVSESPGKTVTISCTRSSGSIASNYVQWYQQRPGSSPTTVIYDDNQRPSGVPNRFSGSIDSSSNSASLIISGLKTEDEADYYCQSTRVFGGGTKLTVL
notes: also called 008-218-HC; 008-218-LC
binds: [1] | [2] | [3]

B4: 007-124 (antibody, human IgG1, V domains shown)
VH: EVQLVESGGGVGRPGGSLRLSCAASGFTFDDYGMSWVRQVPGKGLEWVSGINWSGADTGYADSVKGRFTISRDNAKNSLYLQMNSLRVEDTALYHCAREVGIAVTGYWFDPWGQGTLVTV
VL: SYELTQPPSVSVAPGQTARISCGGNHSESVHWYQQKPGQAPVLVVYDDSDRPSGIPERFSGSKSGNTATLTISRVEGGDEAEYYCQVWDSSSDHPGVVFGGGTKLTVL
notes: also called 007-124-HC; 007-124-LC
binds: [1] | [2] | [3]
